Values from PubChem BioAssay AID1259308 (NCATS, 2017)
This is one part, drawn at random, of about 59,000 reagents tested. In the full data, about 1,510 (2.6%) were called active. 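Calls use total luciferase alone and ignore viability, so some active siRNAs may act by altering cell number.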 Unmarked entries are inactive. The numbers tell different reagents against one gene apart.

- Screen: 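Candidate targets for better recombinant protein yield in mammalian cells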 (primary screen)
- System: human HEK293 embryonic kidney cells stably expressing firefly luciferase (HEK-CMV-Luc2-Hygro)
- Knock-down reagent: single siRNA against human genes, 0.8 pmol siRNA per well
- Timing: 72 h
- Measurement: 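Luciferase light (ONE-Glo) measured on one replicate plate set and viability (CellTiter-Glo) on the other, scaled to a negative control siRNA, with robust z-scores and luciferase per cell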
- Reading the numbers: total luciferase, z-score and total luciferase, % of control: higher = more reporter protein produced; luciferase per cell, z-score: higher = more reporter output per viable cell; viable cells, % of control: higher = more viable cells
- Hit rule: 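Active when the median/MAD z-score for overall luciferase is greater than 3; a gene was taken forward for validation with new siRNAs if at least two of its three siRNAs passed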
- Meaning of the calls: active = raised luciferase; inactive = no rise

| total luciferase, z-score | total luciferase, % of control | luciferase per cell, z-score | viable cells, % of control | gene | reagent |
| --- | --- | --- | --- | --- | --- |
| 0.697 | 95.8 | 0.21 | 101 | MARVELD2 (MARVEL domain containing 2) | 1 |
| -2.88 | 24.5 | -3.29 | 65.1 | MARVELD2 (MARVEL domain containing 2) | 2 |
| -0.429 | 73.4 | -0.437 | 92 | MARVELD2 (MARVEL domain containing 2) | 3 |
| 0.181 | 85.5 | 0.58 | 82 | ELF5 (E74 like ETS transcription factor 5) | 1 |
| 1.62 | 114 | 1.05 | 96.6 | ELF5 (E74 like ETS transcription factor 5) | 2 |
| -0.37 | 74.5 | -0.706 | 100 | ELF5 (E74 like ETS transcription factor 5) | 3 |
| 1.62 | 114 | 1.05 | 96.6 | ECM1 (extracellular matrix protein 1) | 1 |
| 0.647 | 94.8 | 1.37 | 73.9 | ECM1 (extracellular matrix protein 1) | 2 |
| -0.0278 | 81.3 | -0.423 | 102 | ECM1 (extracellular matrix protein 1) | 3 |
| 0.168 | 85.2 | -0.104 | 97.9 | FEM1B (fem-1 homolog B) | 1 |
| 0.435 | 90.5 | 0.109 | 98.3 | FEM1B (fem-1 homolog B) | 2 |
| -0.342 | 75.1 | -0.493 | 95.5 | FEM1B (fem-1 homolog B) | 3 |
| -0.256 | 76.8 | -0.213 | 90.8 | TP53TG3 (TP53 target 3) | 1 |
| 1.38 | 109 | 0.852 | 97.5 | TP53TG3 (TP53 target 3) | 2 |
| 0.857 | 98.9 | 0.407 | 99.3 | TP53TG3 (TP53 target 3) | 3 |
| 1.03 | 102 | 1.12 | 85.2 | SESN1 (sestrin 1) | 1 |
| -0.295 | 76 | 0.389 | 76.7 | SESN1 (sestrin 1) | 2 |
| 0.322 | 88.3 | 0.426 | 88.2 | SESN1 (sestrin 1) | 3 |
| -1.1 | 59.9 | -0.838 | 83.5 | RPL12 (ribosomal protein L12) | 1 |
| -2.35 | 35.2 | -0.333 | 42.9 | RPL12 (ribosomal protein L12) | 2 |
| 0.0885 | 83.6 | 0.154 | 89.7 | RPL12 (ribosomal protein L12) | 3 |
| -2.33 | 35.5 | -2.08 | 68.7 | CRHBP (corticotropin releasing hormone binding protein) | 1 |
| 0.31 | 88 | -0.248 | 105 | CRHBP (corticotropin releasing hormone binding protein) | 2 |
| 0.707 | 96 | 0.128 | 104 | CRHBP (corticotropin releasing hormone binding protein) | 3 |
